# Laboratory results from the supplement of paper PMC6411743.
# ± gives the standard deviation of the averaged measurements. The list shows a part of the results.
# Molecular target: T1, A0A087WTB8|P15374 (UniProt P15374)
# T1 sequence (whole entry): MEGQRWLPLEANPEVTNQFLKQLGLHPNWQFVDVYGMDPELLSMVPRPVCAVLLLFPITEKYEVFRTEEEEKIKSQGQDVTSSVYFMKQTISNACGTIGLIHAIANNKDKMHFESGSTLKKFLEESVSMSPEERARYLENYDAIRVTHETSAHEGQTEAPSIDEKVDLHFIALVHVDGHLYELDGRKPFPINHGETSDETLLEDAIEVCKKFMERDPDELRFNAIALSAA
# Test: NP40-soluble protein abundance relative to vehicle (solubility fold change) (ratio); higher = more soluble protein in presence of GTP
# Procedure: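 Solubility proteome profiling in Jurkat crude lysate. Lysate was treated with Mg-GTP (0.1-10 mM) for 10 min at room temperature and 3 min at 37 °C, then solubilised with 0.8% NP40 and benzonase, followed by ultracentrifugation. Proteins were quantified by TMT10 LC-MS/MS; the value is the NP40-soluble abundance relative to the NP40-processed vehicle, from 3 independent experiments.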
smiles,measurement,setting,value
Nc1nc2c(ncn2[C@@H]2O[C@H](COP(=O)(O)OP(=O)(O)OP(=O)(O)O)[C@@H](O)[C@H]2O)c(=O)[nH]1 [guanosine triphosphate],NP40-soluble protein abundance,concentration: 0.1mM,0.961 ± 0.038
same,NP40-soluble protein abundance,concentration: 0.5mM,0.96 ± 0.069
same,NP40-soluble protein abundance,concentration: 1mM,0.939 ± 0.044
same,NP40-soluble protein abundance,concentration: 2mM,0.946 ± 0.075
same,NP40-soluble protein abundance,concentration: 4mM,0.918 ± 0.064
same,NP40-soluble protein abundance,concentration: 6mM,0.927 ± 0.07
same,NP40-soluble protein abundance,concentration: 8mM,0.899 ± 0.098
same,NP40-soluble protein abundance,concentration: 10mM,0.91 ± 0.079

# Two entries from above, tab-delimited:
smiles	measurement	setting	value
Nc1nc2c(ncn2[C@@H]2O[C@H](COP(=O)(O)OP(=O)(O)OP(=O)(O)O)[C@@H](O)[C@H]2O)c(=O)[nH]1 [guanosine triphosphate]	NP40-soluble protein abundance	concentration: 4mM	0.918 ± 0.064
same	NP40-soluble protein abundance	concentration: 8mM	0.899 ± 0.098
